The results in this text go back to the supplement of paper PMC10032668.

Protein sequences, listed by entry. Tags and fused reporters are not part of them.
SNRPC, P09234, UniProt P09234, whole entry: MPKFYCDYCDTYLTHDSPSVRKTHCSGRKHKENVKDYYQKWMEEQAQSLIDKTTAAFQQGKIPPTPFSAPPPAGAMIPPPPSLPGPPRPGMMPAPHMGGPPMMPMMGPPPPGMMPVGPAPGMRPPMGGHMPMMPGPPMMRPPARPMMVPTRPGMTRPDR
CHTF18, Q8WVB6, UniProt Q8WVB6, whole entry: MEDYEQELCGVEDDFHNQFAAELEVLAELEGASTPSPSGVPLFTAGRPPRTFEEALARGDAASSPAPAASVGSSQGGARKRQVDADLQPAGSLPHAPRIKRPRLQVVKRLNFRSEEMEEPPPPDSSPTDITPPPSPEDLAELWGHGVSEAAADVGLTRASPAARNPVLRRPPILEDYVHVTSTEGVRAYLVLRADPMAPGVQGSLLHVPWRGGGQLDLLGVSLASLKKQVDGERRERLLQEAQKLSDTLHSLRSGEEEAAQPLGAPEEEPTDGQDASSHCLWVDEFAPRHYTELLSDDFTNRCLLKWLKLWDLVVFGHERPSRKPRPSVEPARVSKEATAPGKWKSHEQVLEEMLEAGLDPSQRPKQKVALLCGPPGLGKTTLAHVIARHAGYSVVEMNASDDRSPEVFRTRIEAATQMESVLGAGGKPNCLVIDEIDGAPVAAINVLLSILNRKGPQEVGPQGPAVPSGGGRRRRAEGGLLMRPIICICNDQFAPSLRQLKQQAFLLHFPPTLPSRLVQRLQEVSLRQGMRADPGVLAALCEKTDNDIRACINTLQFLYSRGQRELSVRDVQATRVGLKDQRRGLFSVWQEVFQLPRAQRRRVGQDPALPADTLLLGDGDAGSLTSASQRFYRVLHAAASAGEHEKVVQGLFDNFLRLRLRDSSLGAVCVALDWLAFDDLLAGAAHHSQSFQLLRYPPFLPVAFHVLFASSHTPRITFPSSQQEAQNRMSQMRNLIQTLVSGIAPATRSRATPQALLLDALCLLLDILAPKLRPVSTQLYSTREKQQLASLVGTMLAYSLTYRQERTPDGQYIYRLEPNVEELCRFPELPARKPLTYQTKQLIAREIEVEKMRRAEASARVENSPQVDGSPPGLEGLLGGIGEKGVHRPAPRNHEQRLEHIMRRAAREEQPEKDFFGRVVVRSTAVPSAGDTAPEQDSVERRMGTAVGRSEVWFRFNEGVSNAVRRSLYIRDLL
RFC2, P35250, UniProt P35250, whole entry: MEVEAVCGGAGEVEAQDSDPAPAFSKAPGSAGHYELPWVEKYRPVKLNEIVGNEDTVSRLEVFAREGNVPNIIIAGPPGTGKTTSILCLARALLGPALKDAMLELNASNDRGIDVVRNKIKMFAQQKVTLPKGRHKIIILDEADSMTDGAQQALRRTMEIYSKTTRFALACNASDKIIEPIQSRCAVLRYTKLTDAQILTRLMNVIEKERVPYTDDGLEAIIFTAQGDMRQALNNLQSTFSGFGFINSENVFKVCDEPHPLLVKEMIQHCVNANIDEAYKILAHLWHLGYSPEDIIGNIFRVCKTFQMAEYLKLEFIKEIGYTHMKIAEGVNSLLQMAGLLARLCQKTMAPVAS
NDUFA9, Q16795, UniProt Q16795, whole entry: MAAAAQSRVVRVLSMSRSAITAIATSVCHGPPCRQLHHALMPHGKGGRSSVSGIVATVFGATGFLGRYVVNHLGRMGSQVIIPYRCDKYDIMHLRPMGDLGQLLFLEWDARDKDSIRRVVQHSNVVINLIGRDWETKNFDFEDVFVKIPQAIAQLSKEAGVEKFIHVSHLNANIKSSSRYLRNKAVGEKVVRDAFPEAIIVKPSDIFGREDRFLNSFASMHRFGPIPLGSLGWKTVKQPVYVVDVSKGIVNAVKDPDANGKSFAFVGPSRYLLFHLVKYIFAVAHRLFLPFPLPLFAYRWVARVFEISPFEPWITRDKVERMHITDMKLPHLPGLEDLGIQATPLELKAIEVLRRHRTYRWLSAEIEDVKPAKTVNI
PHAX, Q9H814, UniProt Q9H814, whole entry: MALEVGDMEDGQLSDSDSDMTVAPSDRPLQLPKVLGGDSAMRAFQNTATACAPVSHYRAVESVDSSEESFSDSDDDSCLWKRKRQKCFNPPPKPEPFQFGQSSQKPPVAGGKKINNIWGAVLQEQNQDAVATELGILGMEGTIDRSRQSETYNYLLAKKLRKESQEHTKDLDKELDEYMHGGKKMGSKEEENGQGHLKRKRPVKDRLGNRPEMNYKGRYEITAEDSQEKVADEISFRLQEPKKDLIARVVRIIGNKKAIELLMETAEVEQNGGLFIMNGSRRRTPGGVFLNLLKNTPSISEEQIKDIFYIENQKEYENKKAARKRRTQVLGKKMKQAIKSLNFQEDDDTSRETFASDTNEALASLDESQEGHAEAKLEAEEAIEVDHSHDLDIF
ECPAS, Q5VYK3, UniProt Q5VYK3, whole entry: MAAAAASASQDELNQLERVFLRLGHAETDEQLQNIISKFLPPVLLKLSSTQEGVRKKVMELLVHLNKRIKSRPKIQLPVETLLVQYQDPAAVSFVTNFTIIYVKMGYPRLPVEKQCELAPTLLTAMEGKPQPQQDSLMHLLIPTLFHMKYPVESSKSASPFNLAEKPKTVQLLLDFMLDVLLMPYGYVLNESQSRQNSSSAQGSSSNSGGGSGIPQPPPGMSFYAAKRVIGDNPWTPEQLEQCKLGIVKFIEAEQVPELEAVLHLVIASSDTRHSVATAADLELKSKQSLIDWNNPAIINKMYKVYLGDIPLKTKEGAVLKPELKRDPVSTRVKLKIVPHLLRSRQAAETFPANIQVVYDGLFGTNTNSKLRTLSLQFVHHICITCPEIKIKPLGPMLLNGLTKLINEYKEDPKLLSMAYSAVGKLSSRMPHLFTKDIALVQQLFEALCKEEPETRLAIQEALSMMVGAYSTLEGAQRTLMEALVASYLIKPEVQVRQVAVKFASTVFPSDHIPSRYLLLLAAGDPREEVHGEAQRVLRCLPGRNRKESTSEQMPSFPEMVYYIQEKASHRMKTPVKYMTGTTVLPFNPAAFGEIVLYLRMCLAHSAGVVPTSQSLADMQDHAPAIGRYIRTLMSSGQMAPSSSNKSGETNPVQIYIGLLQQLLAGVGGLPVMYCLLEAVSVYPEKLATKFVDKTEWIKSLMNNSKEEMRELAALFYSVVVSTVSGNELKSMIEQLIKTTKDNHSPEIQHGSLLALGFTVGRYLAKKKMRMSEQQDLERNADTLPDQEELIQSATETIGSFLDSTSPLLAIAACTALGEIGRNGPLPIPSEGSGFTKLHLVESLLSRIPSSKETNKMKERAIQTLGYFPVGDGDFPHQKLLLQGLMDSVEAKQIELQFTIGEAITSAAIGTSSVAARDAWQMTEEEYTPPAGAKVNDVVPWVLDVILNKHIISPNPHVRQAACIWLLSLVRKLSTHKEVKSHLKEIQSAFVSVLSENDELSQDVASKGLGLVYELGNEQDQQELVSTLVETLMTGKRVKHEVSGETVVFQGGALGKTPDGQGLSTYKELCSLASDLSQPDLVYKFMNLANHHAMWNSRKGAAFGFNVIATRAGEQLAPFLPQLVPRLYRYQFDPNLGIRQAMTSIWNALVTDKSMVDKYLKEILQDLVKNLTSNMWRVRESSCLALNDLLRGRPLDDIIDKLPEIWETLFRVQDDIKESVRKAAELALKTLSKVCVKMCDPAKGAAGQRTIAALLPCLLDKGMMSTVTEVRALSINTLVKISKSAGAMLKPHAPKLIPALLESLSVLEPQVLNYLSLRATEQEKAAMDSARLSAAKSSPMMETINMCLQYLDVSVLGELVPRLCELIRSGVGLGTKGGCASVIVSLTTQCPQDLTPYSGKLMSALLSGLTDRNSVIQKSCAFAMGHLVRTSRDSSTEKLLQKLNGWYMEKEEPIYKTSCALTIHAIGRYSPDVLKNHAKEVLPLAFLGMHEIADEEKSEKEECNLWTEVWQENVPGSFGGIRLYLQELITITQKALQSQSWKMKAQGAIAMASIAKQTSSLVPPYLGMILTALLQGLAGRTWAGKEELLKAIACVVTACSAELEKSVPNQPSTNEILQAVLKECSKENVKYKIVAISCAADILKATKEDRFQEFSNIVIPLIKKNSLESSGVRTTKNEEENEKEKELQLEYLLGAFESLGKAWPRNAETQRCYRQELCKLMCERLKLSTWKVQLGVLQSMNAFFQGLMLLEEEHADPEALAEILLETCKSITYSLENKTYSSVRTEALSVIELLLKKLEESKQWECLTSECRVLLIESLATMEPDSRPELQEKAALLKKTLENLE
EIF2B1, Q14232, UniProt Q14232, whole entry: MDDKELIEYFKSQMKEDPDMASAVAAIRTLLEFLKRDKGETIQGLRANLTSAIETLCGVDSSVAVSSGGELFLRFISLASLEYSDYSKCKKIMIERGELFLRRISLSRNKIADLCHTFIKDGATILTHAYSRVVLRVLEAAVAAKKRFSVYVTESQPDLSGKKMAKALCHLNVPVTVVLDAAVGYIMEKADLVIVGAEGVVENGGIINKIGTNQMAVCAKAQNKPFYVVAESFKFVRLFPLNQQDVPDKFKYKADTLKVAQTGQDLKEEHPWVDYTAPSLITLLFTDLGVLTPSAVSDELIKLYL
EIF4B, P23588, UniProt P23588, whole entry: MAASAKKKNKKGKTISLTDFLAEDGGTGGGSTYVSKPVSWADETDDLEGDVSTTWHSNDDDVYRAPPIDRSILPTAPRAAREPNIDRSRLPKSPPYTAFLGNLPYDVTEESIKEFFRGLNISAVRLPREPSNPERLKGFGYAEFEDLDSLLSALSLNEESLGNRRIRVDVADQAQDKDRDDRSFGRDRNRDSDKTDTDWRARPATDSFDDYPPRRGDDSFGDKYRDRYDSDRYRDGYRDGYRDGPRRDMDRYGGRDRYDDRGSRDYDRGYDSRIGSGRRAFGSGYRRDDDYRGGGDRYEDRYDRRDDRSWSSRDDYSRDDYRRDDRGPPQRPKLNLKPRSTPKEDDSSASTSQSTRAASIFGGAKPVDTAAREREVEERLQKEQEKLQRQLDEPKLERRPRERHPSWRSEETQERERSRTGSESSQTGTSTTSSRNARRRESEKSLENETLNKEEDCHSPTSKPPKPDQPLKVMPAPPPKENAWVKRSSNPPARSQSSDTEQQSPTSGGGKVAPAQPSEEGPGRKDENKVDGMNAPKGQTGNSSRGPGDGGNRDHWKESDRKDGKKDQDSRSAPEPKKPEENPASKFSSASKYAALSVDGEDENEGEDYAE
GRWD1, Q9BQ67, UniProt Q9BQ67, whole entry: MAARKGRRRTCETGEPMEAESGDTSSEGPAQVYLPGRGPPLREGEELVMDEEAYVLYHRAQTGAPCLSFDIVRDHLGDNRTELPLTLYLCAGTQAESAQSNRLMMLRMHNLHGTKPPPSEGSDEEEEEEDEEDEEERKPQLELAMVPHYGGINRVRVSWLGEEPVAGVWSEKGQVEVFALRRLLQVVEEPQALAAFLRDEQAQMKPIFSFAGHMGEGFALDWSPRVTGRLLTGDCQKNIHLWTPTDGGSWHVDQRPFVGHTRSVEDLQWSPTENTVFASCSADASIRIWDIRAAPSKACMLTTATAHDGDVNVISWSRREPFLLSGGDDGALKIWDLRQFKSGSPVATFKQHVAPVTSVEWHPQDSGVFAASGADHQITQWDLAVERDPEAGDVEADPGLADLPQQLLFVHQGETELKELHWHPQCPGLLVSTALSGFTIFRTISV
NCAPH, Q15003, UniProt Q15003, whole entry: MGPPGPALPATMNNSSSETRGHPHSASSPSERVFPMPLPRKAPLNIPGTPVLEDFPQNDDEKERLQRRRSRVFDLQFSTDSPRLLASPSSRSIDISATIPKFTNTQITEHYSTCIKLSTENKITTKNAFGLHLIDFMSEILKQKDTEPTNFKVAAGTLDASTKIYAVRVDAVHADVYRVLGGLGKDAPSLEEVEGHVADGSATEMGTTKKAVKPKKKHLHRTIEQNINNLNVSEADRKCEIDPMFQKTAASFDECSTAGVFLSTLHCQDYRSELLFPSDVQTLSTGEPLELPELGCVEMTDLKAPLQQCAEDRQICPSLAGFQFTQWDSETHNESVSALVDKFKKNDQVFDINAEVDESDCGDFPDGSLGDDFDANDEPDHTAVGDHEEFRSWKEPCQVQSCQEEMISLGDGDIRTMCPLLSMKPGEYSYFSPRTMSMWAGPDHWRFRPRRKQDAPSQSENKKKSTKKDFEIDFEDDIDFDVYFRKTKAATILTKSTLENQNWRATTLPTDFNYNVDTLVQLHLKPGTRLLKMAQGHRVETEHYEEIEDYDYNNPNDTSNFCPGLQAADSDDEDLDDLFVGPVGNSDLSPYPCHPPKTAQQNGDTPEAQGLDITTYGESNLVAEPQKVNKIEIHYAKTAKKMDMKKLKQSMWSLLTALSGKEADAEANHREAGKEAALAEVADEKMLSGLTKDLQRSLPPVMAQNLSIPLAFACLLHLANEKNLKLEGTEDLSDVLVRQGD
NUDT21, O43809, UniProt O43809, whole entry: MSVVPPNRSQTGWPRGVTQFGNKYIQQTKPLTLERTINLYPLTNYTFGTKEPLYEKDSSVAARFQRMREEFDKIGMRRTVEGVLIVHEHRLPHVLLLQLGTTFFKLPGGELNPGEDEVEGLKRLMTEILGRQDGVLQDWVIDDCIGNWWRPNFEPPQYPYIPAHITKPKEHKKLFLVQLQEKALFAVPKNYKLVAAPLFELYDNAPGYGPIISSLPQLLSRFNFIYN

This is one part of the list. The list holds hits alone, and they repeat only in part.

Holding throughout (assay): PRISMA enrichment of interactor (LFQ) in peptide spot vs all other peptide spots (log2 fold change); higher = stronger / more specific binding of the interactor to the peptide
The target of one experiment is BPTF, Q12830. Here is the method:
(§1)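 PRISMA: 15-aa overlapping tiles (offset 8 aa) of 60 microproteins, plus SOS1/GLUT1 control peptides, were spot-synthesized on cellulose membranes in triplicate. Membranes were incubated with benzonase-treated HEK293T lysate, and bound proteins were identified by LC-MS/MS with LFQ. Enrichment is the log2 fold change of each protein in one spot versus all other spots. Only interactors passing the significance cutoff are listed.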

For a further experiment, the target named is CHMP1A, Q9HD42. Here is the method:
as §1

The target of a further experiment is CLNS1A, P54105. The procedure: as §1
Another experiment deals with MRPL1, Q9BYD6. The procedure: as §1
The next experiment addresses NEFM, P07197. The procedure: as §1
Another experiment concerns the target NIBAN2, Q96TA1. The procedure:
as §1

The target in another experiment is PKP2, Q99959. Here is the method:
as §1

The next experiment has as its target SNRPC, P09234. The procedure: as §1
In a further experiment the target is UTP11, Q9Y3A2. The procedure: as §1
Another experiment concerns the target CD2BP2, O95400. Here is the method: as §1
In a further experiment the target is CHTF18, Q8WVB6. The procedure:
as §1

The target in a further experiment is FAM133B, Q5BKY9. Here is the method: as §1
The target in the next experiment is FBXO45, P0C2W1. Here is the method:
as §1

The target in a further experiment is GATAD2A, Q86YP4. Here is the method:
as §1

Another experiment deals with HOXD13, P35453. The procedure: as §1
Another experiment deals with LEO1, Q8WVC0. The procedure:
as §1

The target of a further experiment is MKRN2, Q9H000. The procedure: as §1
For the next experiment, the target named is MPST, P25325. Here is the method: as §1
Another experiment has as its target NUFIP2, Q7Z417. Here is the method:
as §1

The target in another experiment is POLR2J3, Q9H1A7. Here is the method: as §1
The next experiment addresses RFC2, P35250. Here is the method:
as §1

The target of a further experiment is SGTA, O43765. The procedure:
as §1

For the next experiment, the target named is SNX2, O60749. The procedure:
as §1

The target of a further experiment is BSG, P35613. The procedure:
as §1

Another experiment concerns the target FMR1, Q06787. The procedure: as §1
In another experiment the target is GET4, Q7L5D6. The procedure: as §1
A further experiment deals with MRPS34, P82930. The procedure:
as §1

The target in the next experiment is MUC19, Q7Z5P9. Here is the method:
as §1

A further experiment concerns the target NDUFA9, Q16795. Here is the method:
as §1

For the next experiment, the target named is NECAP2, Q9NVZ3. Here is the method:
as §1

For another experiment, the target named is PTGES3, Q15185. The procedure:
as §1

For a further experiment, the target named is SFXN2, Q96NB2. Here is the method:
as §1

A further experiment has as its target SHROOM3, Q8TF72. Here is the method: as §1
The next experiment addresses SURF2, Q15527. Here is the method:
as §1

In a further experiment the target is TOMM6, Q96B49. The procedure:
as §1

The target of another experiment is TUBAL3, A6NHL2. Here is the method: as §1
In a further experiment the target is ZMAT2, Q96NC0. Here is the method: as §1
The target of the next experiment is BOLA3, Q53S33. Here is the method: as §1
The target of the next experiment is C19orf53, Q9UNZ5. The procedure: as §1
The target in another experiment is CDKN2AIPNL, Q96HQ2. Here is the method: as §1
The target of another experiment is CSRP2, Q16527. The procedure: as §1
In a further experiment the target is DDX42, Q86XP3. Here is the method:
as §1

For the next experiment, the target named is DDX5, P17844. Here is the method:
as §1

The target of another experiment is G3BP2, Q9UN86. The procedure: as §1
For the next experiment, the target named is HSP90AB2P, Q58FF8. The procedure:
as §1

For the next experiment, the target named is MRPL27, Q9P0M9. Here is the method:
as §1

Another experiment concerns the target PHAX, Q9H814. The procedure: as §1
Another experiment addresses PUS1, Q9Y606. The procedure: as §1
A further experiment has as its target TXNDC5, Q8NBS9. Here is the method: as §1
Another experiment deals with BZW1, Q7L1Q6. The procedure: as §1
The next experiment concerns the target CCAR1, Q8IX12. Here is the method:
as §1

A further experiment deals with CDC73, Q6P1J9. The procedure:
as §1

Another experiment addresses CGN, Q9P2M7. The procedure: as §1
Another experiment addresses CHMP2A, O43633. The procedure: as §1
The target of the next experiment is COPG1, Q9Y678. Here is the method: as §1
A further experiment concerns the target CPS1, P31327. Here is the method:
as §1

The next experiment deals with DUSP9, Q99956. Here is the method:
as §1

A further experiment has as its target ECD, O95905. Here is the method:
as §1

A further experiment has as its target ECPAS, Q5VYK3. The procedure:
as §1

The target in a further experiment is EDC4, Q6P2E9. Here is the method: as §1
A further experiment has as its target EIF2B1, Q14232. Here is the method:
as §1

The target of the next experiment is EIF4B, P23588. The procedure: as §1
Another experiment concerns the target ETFB, P38117. Here is the method: as §1
In the next experiment the target is FGF11, Q92914. Here is the method: as §1
The next experiment concerns the target FUBP1, Q96AE4. The procedure:
as §1

A further experiment addresses GRWD1, Q9BQ67. The procedure:
as §1

The next experiment concerns the target HERC2, O95714. The procedure: as §1
Another experiment has as its target KCNH1, O95259. Here is the method:
as §1

In a further experiment the target is KCTD12, Q96CX2. The procedure: as §1
In the next experiment the target is MAGED2, Q9UNF1. The procedure:
as §1

Another experiment concerns the target MAP7D3, Q8IWC1. Here is the method:
as §1

Another experiment deals with NCAPH, Q15003. Here is the method: as §1
A further experiment has as its target NOP14, P78316. The procedure:
as §1

For a further experiment, the target named is NPHS1, O60500. Here is the method:
as §1

The target in the next experiment is NUDC, Q9Y266. Here is the method:
as §1

In another experiment the target is NUDT21, O43809. Here is the method: as §1
The target of the next experiment is PRDX3, P30048. The procedure: as §1
For a further experiment, the target named is PRPS2, P11908. The procedure: as §1
The target of another experiment is ITCH, Q96J02. The procedure: as §1
A further experiment has as its target PSMG1, O95456. Here is the method:
as §1

B1: RP11-620J15.3 (peptide)
chain: CLILKLKKLSWKTER
Turning to B1, the “PRISMA enrichment of interactor (log2)” value amounted to 4.45 in the experiment with BPTF, Q12830; 4.82 with CHMP1A, Q9HD42; 5.09 in the experiment with CLNS1A, P54105; 4.36 with MRPL1, Q9BYD6; 4.01 in the experiment with NEFM, P07197; 5.44 with NIBAN2, Q96TA1. Moreover, the “PRISMA enrichment of interactor (log2)” value with PKP2, Q99959 worked out at 4.25; with SNRPC, P09234, 5.08; with UTP11, Q9Y3A2, 6.15.

B2: SNHG16 (peptide)
chain: DGAVSLSFQSRKRIL
As for B2, the “PRISMA enrichment of interactor (log2)” value is 5.68 with BPTF, Q12830; 4.32 with CD2BP2, O95400; 4.06 with CHTF18, Q8WVB6; 4.45 with FAM133B, Q5BKY9; 5.49 with FBXO45, P0C2W1; 5.79 with GATAD2A, Q86YP4. Further, the “PRISMA enrichment of interactor (log2)” value with HOXD13, P35453 was 4.34; with LEO1, Q8WVC0, 5.24; in the experiment with MKRN2, Q9H000 it was 4.27; with MPST, P25325, 4.44; with NEFM, P07197, 8.58; with NUFIP2, Q7Z417 it was 4.96. Moreover, the “PRISMA enrichment of interactor (log2)” value with POLR2J3, Q9H1A7 was 5.06; with RFC2, P35250, 4.76; with SGTA, O43765 it was 5.08; with SNX2, O60749 it was 6.32.

B3: LINC01560 (peptide)
chain: GIWSSGVDMLPNGAV
Turning to B3, the “PRISMA enrichment of interactor (log2)” value in the experiment with BSG, P35613 was 5; in the experiment with FMR1, Q06787, 6.39; with GET4, Q7L5D6, 4.16; with MRPS34, P82930 it was 4.51; with MUC19, Q7Z5P9, 8.32; with NDUFA9, Q16795 it was 6.34. For the same molecule, the “PRISMA enrichment of interactor (log2)” value is 4.22 in the experiment with NECAP2, Q9NVZ3; 6.8 with PTGES3, Q15185; 4.3 in the experiment with SFXN2, Q96NB2; 9.48 with SHROOM3, Q8TF72; 3.76 with SURF2, Q15527; 4.35 with TOMM6, Q96B49. Besides, the “PRISMA enrichment of interactor (log2)” value in the experiment with TUBAL3, A6NHL2 turned out to be 4.01; with ZMAT2, Q96NC0 it was 4.64.

B4: RP11-432J24.5_2 (peptide)
chain: DMCFLLSWINVSTWA
On to B4, for which the “PRISMA enrichment of interactor (log2)” value turned out to be 4.5 with BOLA3, Q53S33; 5.83 with C19orf53, Q9UNZ5; 4.31 in the experiment with CDKN2AIPNL, Q96HQ2; 4.93 with CSRP2, Q16527; 5.75 in the experiment with DDX42, Q86XP3; 6.6 with DDX5, P17844. The “PRISMA enrichment of interactor (log2)” value with G3BP2, Q9UN86 was found to be 5.13; in the experiment with HSP90AB2P, Q58FF8, 4.97; with MRPL27, Q9P0M9 it was 6.62; in the experiment with PHAX, Q9H814 it was 4.84; with PUS1, Q9Y606, 4.76; in the experiment with TXNDC5, Q8NBS9, 6.67.

B5: PPP1R15A (peptide)
chain: MNALASLTVRTCDRF
B5: the “PRISMA enrichment of interactor (log2)” value in the experiment with BZW1, Q7L1Q6 was 7.65; with CCAR1, Q8IX12, 4.97; in the experiment with CDC73, Q6P1J9 it was 5.78; with CGN, Q9P2M7 it was 5.19; with CHMP2A, O43633 it was 4.14; with COPG1, Q9Y678 it was 4.54. In addition, the “PRISMA enrichment of interactor (log2)” value with CPS1, P31327 was found to be 5.66; with DUSP9, Q99956 it was 5.08; in the experiment with ECD, O95905 it was 4.75; in the experiment with ECPAS, Q5VYK3 it was 4.72; with EDC4, Q6P2E9 it was 6.78; in the experiment with EIF2B1, Q14232 it was 4.55. Moreover, the “PRISMA enrichment of interactor (log2)” value was 4.64 with EIF4B, P23588; 7.2 in the experiment with ETFB, P38117; 9.09 with FGF11, Q92914; 7.64 in the experiment with FUBP1, Q96AE4; 4.76 with GRWD1, Q9BQ67; 4.08 with HERC2, O95714. Also, the “PRISMA enrichment of interactor (log2)” value with KCNH1, O95259 was 6.63; with KCTD12, Q96CX2, 3.94; with LEO1, Q8WVC0 it was 7.15; with MAGED2, Q9UNF1, 6.13; with MAP7D3, Q8IWC1, 4.94; in the experiment with NCAPH, Q15003, 4.56. In addition, the “PRISMA enrichment of interactor (log2)” value in the experiment with NOP14, P78316 is 4.58; in the experiment with NPHS1, O60500 it was 6.32; with NUDC, Q9Y266, 4.42; in the experiment with NUDT21, O43809, 7.9; with PRDX3, P30048, 5.48; in the experiment with PRPS2, P11908, 4.12.

B6: TBX5-AS1 (peptide)
chain: SERSVFSLWFLSPAS
For B6, the “PRISMA enrichment of interactor (log2)” value in the experiment with BOLA3, Q53S33 was 4.21; with DDX5, P17844, 5.97; with ITCH, Q96J02, 4.19; in the experiment with PSMG1, O95456 it was 4.19; in the experiment with TUBAL3, A6NHL2, 4.17; with ZMAT2, Q96NC0, 4.23.
